Percent effect of library compounds

Amino acid sequences for entries named in this document (tags omitted).
UniProt P9WPC5, whole entry: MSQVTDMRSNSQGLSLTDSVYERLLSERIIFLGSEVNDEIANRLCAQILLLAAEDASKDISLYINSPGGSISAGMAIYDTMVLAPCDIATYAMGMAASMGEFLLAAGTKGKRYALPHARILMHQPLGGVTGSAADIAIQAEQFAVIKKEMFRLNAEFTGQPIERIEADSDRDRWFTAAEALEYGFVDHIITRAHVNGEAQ
UniProt P9WPC3, whole entry partner: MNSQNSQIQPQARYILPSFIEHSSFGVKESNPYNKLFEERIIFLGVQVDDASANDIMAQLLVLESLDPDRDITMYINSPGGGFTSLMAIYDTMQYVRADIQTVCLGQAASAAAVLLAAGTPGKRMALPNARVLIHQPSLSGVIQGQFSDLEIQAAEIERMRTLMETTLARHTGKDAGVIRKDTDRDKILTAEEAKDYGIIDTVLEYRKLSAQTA
UniProt P9WNZ1, whole entry: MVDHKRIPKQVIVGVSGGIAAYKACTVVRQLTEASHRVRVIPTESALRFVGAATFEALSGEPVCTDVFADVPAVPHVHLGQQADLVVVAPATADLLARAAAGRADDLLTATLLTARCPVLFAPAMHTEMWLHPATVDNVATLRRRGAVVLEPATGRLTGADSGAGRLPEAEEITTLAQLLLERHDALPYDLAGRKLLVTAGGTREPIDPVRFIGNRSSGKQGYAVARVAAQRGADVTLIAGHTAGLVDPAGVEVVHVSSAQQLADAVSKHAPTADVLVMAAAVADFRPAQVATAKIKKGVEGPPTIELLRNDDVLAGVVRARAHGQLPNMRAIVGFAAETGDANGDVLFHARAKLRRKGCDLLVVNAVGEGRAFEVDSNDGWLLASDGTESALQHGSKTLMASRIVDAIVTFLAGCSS

ClpP1P2: 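Protease assay of ClpP1P2, read by the AMC dye that it sets free. Target: ClpP1P2, Mycobacterium tuberculosis (UniProt P9WPC5 and UniProt P9WPC3). Concentration: 50 µM. Higher reads as stronger inhibition, judged from the few compounds that gave an IC50. Most other retested compounds had strongly negative values. About 69,000 compounds were tested under these conditions; 0.015% (about 10) showed 50% or more at least once.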
CoaBC: 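Coenzyme A biosynthesis protein CoaBC, Mycobacterium tuberculosis (UniProt P9WNZ1). Enzyme assay of CoaBC with a phosphate dye (Biomol Green) read at 650 nm. Compounds at 30 µM. Higher reads as stronger inhibition, judged from the few compounds that gave an IC50. Most strong results did not repeat in a second test. About 67,000 compounds were tested under these conditions; 0.06% (about 40) showed 50% or more at least once.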

Results are given as percent effect.
The record does not define 0% and 100%; most values in the screen are far below 50% and negative numbers occur (in some assays of this library far below -100).
The compounds are a random part of those screened.
Two or more numbers in one place are separate tests of the same structure; such repeats can differ widely.
A dash means the value is not listed here; it may have been measured.

| Compound | ClpP1P2 | CoaBC |
|---|---|---|
| `CC(O)CN(CC(=O)NC1CCCCC1)c1ccccc1` (centres unmarked) | -3.873 | 8.423 |
| `c1csc(CN2CCC3(COCCN(CC4CC4)C3)C2)n1` (centres unmarked) | 2.941 | 0.2114 |
| `Cc1ccc(O)c(CNc2cccc(OCCF)c2)n1` | -10.47 | 2.913 |
| `CN(C)CCN1C(=O)CC[C@@H]2[C@H]1CCN2Cc1cccc(C#N)c1` | -1.941 | 4.25 |
| `Cc1c(F)cccc1S(=O)(=O)NCC(C)(C)CC(C)O` (centres unmarked) | -0.17 | 1.222 |
| `Cc1nn(C)c2c(N3CCN(C(=O)C4CC4)CC3)ncnc12` | -6.089 | 1.848 |
| `O=C1CCC2(CCN(Cc3ccoc3)CC2)N1OCc1ccccc1F` | -10.78 | 7.559 |
| `O=C(c1ccco1)N1CCN(Cc2nc(C3CC3)no2)CC1` | -26.88 | -3.659 |
| `CC(C)c1cc(C(=O)N2CCN(Cc3ccsc3)CC2)n[nH]1` | -7.141 | 0.8811 |
| `CCc1ccsc1C(=O)N1CCCN(Cc2nccn2CC)CC1` | -26.28 | 6.138 |
| `CC(C)CC(=O)N1CCCC1c1nccnc1Nc1ncccn1` (centres unmarked) | 11 | 1.699 |
| `Cc1cnn(CCNCC(=O)NCCOc2ccc(Cl)cc2)c1` | -24.1 | -0.6519 |
| `CCN1C[C@H]2CCN(C(=O)c3cc[nH]n3)CC[C@H]2S1(=O)=O` | -1.836 | -9.514 |
| `Cc1ccc(N2C[C@H]3OCC[C@H]3[C@H](C(=O)NCc3ccco3)C2)nn1` | -3.013 | 7.107 |
| `CC(C(=O)Nc1ccc(Cl)cn1)N1CCc2nn(C)c(=O)cc2C1` (centres unmarked) | -19.33 | 11.21 |
| `CCc1noc(C)c1C(=O)N1CCC(c2[nH]ncc2S(C)(=O)=O)C1` (centres unmarked) | -1.319 | 0.7282 |
| `COc1cc(C(=O)N2CCCC(n3cncn3)C2)ccc1C` (centres unmarked) | -14.85 | 0.1277 |
| `CCN(CC)[C@@H]1CN(Cc2nccn2C)[C@@H]2CCCO[C@H]12` | -0.7042 | -41.25 |
| `CS(=O)(=O)CCC(=O)N(CCc1cccc(F)c1)C1CC1` | 2.313 | 7.107 |
| `COc1cccc(S(=O)(=O)CCNC2CCc3ncnn3C2)c1` (centres unmarked) | -9.84 | -6.166 |
| `COCCOc1ccc(Cl)c(C(=O)N2CCN(CCO)CC2)n1` | 0.5424 | 6.065 |
| `O=C(c1cccc(F)c1)N1C[C@H]2CCCC(OCc3cccnc3)[C@H]2C1` (some centres unmarked) | -4.43 | 9.772 |
| `CN(C)C(=O)C1CN(Cc2ccccc2)CCN(S(C)(=O)=O)C1` (centres unmarked) | 1.286 | -0.5556 |
| `Cc1cc(C(=O)N2C[C@H](CO)C[C@H](CN3CCOCC3)C2)cnc1C` | -9.971 | -2.071 |
| `CCOc1c(Cl)cccc1NS(=O)(=O)c1cc(C)c(C(=O)O)s1` | 2.515 | 12.45 |
| `Cc1cc(C)n(C2CN(CC(=O)N(C)Cc3cnn(C)c3)C2)n1` | 18.27 | 48.68 and 32.23 |
| `Cc1noc(C)c1C(=O)N1CCC(c2cc3cnccc3[nH]2)CC1` | -15.96 | -72.15 |
| `Cc1cccc2c1cnn2CCC(=O)NCc1csc(C2CC2)n1` | -21.92 | -1.342 |
| `CC(O)c1cn(C2CCN(C(=O)C3(C)CCN(C)CC3)CC2)nn1` (centres unmarked) | -6.485 | -1.366 |
| `CCOc1ccc(C(=O)Nc2c(C)nc3ccc(Cl)cn3c2=O)cc1` | -13.39 | 1.519 |
| `CC(=O)Nc1ncc(S(=O)(=O)N2CCC(C)CC2)s1` | -15.82 | -1.474 |
| `Cc1[nH]nc2ncc(C(=O)N3CCN(CC(C)O)CC3)cc12` (centres unmarked) | 4.78 | 3.781 |
| `COCC(=O)N1CC[C@H]2N(C)CC[C@@]2(C(=O)Nc2ccccc2)CC1` | -4.44 | 6.266 |
| `CN(CCC(O)c1ccccc1)c1cc(N2CCOCC2)ncn1` (centres unmarked) | -4.334 | 7.19 |
| `O=C(CCc1ccccc1)N1CCCCC1Cn1cccn1` (centres unmarked) | -13.64 | 3.394 |
| `COc1ccc(S(=O)(=O)NC2(CC(N)=O)CCC2)cc1` | -7.563 | -3.686 |
| `O=S(=O)(c1ccccc1)N1CCN(Cc2ccc(F)cc2Br)CC1` | 2.703 | 3.226 |
| `FC(F)Oc1ccccc1CN1CCCC(c2nccn2CC2CC2)C1` (centres unmarked) | -18.94 | 3.686 |
| `CN(C)[C@H]1CCCCN(C(=O)c2cccc(-c3cccc(F)c3)c2)C1` | -9.526 | -37.45 |
| `Cc1c(C2CCCN(C(=O)c3cccnc3)C2)n2c(nc1=O)CCC2` (centres unmarked) | 3.422 | -1.716 |
| `Cc1noc(C)c1CCC(=O)N[C@@H]1CCC[C@@H](Oc2cccnc2)[C@@H]1O` | 1.669 | 6.176 |
| `CCc1n[nH]c(C2CN(C(=O)CCc3cscn3)CCO2)n1` (centres unmarked) | -22.35 | 4.092 |
| `Cc1nc(C)n(CC2CCCN2c2ccnc(-c3ccccc3)n2)n1` (centres unmarked) | -4.972 | 5.578 |
| `Cc1nc(C2CCCN(C(=O)CN3CCCC3=O)C2)sc1C` (centres unmarked) | -4.406 | 2.893 |
| `CCN1C(=O)CCCC12CCCN(C(=O)c1cnccn1)C2` (centres unmarked) | 1.483 | -0.4837 |
| `COc1cccc(NC(=O)c2nc3ccccc3n(C)c2=O)c1` | 14.14 | 1.324 |
| `CCCc1noc(CCCC(=O)N2CCCC2c2cnn(C)c2)n1` (centres unmarked) | -24.34 | 2.362 |
| `CN(Cc1ccccc1)C(=O)Cn1nc(N2CCOCC2)ccc1=O` | -7.487 | 1.546 and 31.51 |
| `CSCC(C)(O)CNC(=O)c1cc(Br)ccc1Cl` (centres unmarked) | -15.05 | 11.73 |
| `COCCOCC(=O)Nc1ccc(C)cc1Br` | 10.94 | 3.249 |
| `Cc1c(C(=O)NCC2CCN(Cc3c[nH]cn3)C2)[nH]c2ccccc12` (centres unmarked) | 6.875 | -25.63 |
| `c1cc(CN2CCC(c3ccncc3)CC2)cc(Cn2cccn2)c1` | -2.875 | -0.8444 |
| `CC(C)n1nnc(CC(=O)NCC2(c3ccccc3F)CCOCC2)n1` | 2.101 | 0 |
| `CCN(C)C[C@@H]1CN(S(=O)(=O)c2ccc(C#N)cc2)C[C@@H]1CO` | -11.69 | -0.8264 |
| `CCNC(=O)CS(=O)(=O)NC1CCC(C)CC1` (centres unmarked) | 11.3 | 1.456 |
| `N#Cc1cccc(OCc2ccoc2C(=O)N2CCCCC2)c1` | -8.41 | -8.84 |
| `Cc1oncc1C(=O)N1CC[C@@H]2[C@@H]1CC(=O)N2Cc1cccnc1` | -0.6133 | -1.22 |
| `CCN(Cc1ccncc1)c1cc(C2CCN2C(C)=O)nc(C)n1` (centres unmarked) | -11.56 | -2.871 |
| `CCn1ncc2c1C(COC)CN(Cc1ccc(F)cc1)C2` (centres unmarked) | -10.92 | -5.432 |
| `Cc1c(CN2Cc3nccn3CC2c2ccccc2)cnn1C` (centres unmarked) | -21.11 | 7.99 |
| `CCc1nccn1C1CCCN(C(=O)c2ccc3[nH]nnc3c2)C1` (centres unmarked) | -13.14 | -0.216 |
| `O=S(=O)(N1CCOCC1)N1CCCC1Cn1cccn1` (centres unmarked) | -6.295 | 6.304 |
| `Cc1cnn(CCNCC(O)COc2cc(Cl)ccc2Cl)c1` (centres unmarked) | -45.07 | 1.05 |
| `OC1=C2C(=Nc3n[nH]c(O)c3C2c2ccco2)CCC1` (centres unmarked) | -11.02 | -12.24 |
| `O=C(c1cccc(-c2ncc[nH]2)c1)N1CC[C@H](CO)[C@@H](O)C1` | -10.66 | 3.265 |
| `CC(C)C1=NOC2(CCN(Cc3c[nH]c4ccccc34)CC2)C1` | 6.703 | 2.895 |
| `CN(C)C(=O)c1nc2c(n1C)CCN(Cc1ccccc1)C2` | 2.188 | 3.462 |
| `Cc1cc(C)nc(NC2CCOC3(CCCC3)C2)n1` (centres unmarked) | -2.176 | -4.536 |
| `CCCn1nc(C(=O)N(C)Cc2nnc3n2CCC3)ccc1=O` | -13.28 | 2.303 |
| `COc1cc(C)nc(N2CCN(C(=O)c3ccc(Cl)o3)CC2)n1` | 3.822 | 4.626 |
| `CN(C)Cc1nnc(C2CCN(c3ncccn3)CC2)n1C1CC1` | 0.542 | -2.959 |
| `Cc1nc(C)n(CC2CCCCN2CC(=O)NC2CCOCC2)n1` (centres unmarked) | 3.358 | 4.096 |
| `CCn1cc(S(=O)(=O)N2CCC(C)Sc3ccccc32)cn1` (centres unmarked) | -7.703 | -10.36 |
| `COc1ccc(OC)c(C(C)Nc2nc3c(C)nn(C)c3c(=O)n2C)c1` (centres unmarked) | 0.02999 | -4.091 |
| `Cc1cc(C(=O)N2C[C@@H]3COC[C@]3(c3nnc(C4CC4)o3)C2)on1` | -2.793 | 9.518 |
| `O=C(c1ccno1)N1CC2(CCC(C(=O)N3CCCC3)O2)C1` (centres unmarked) | 3.047 | - |
| `CCc1ncncc1C(=O)N1CCN(Cc2c(C)noc2C)CC1` | 0.4991 | 8.848 |
| `CCc1ccccc1Nc1noc2c1CN(C(=O)CNC(C)=O)CC2` | -3.381 | 0.4866 |
| `O=C(Nc1ccccc1)c1ccc(NCc2ccncc2)nn1` | 0.1988 | - |

Data taken from ChEMBL document CHEMBL3988442, “University of Dundee, Small-Polar-MMV Screening Library” (2021).